In patent publication US4582824A, “Method for inhibiting activities of platelet activating factor” (Takeda Chemical Industries, Ltd., priority 1983, dated 1986):
For at least one compound, name, drawing or mass did not settle the structure.

Test system: circulatory shock due to PAF
Assay: Inhibitory activity against circulatory shock due to PAF in anesthetized dogs
Assay type: in vivo, mongrel dogs
Details: pretreatment 10 mg/kg i.v.; PAF 1.0 μg/kg i.v.
Procedure: Male and female mongrel dogs weighing 9 to 13 kg were used. Under pentobarital sodium ([…], i.v.) anesthesia and supportive respiration, a thoracotomy was performed at the left fourth interspace. The origin of the left coronary circumflex and the aortic arch were released, an electromagnetic probe was attached to each, and the coronary blood flow (CoF) and cardiac output (CO) were measured. Moreover, a polyethylene cannula was inserted from the apex of the heart into the left ventricle and the left ventricular pressure (LVP) was measured by means of a pressure transducer. In addition, its first-order differential dp/dt was determined by way of a differential circuit. The mean blood pressure (MBP) was continuously recorded on an ink-writing polygraph through a pressure transducer via a cannula inserted into the right femoral artery and the heart rate (HR) was similarly recorded via a tachometer driven by mean blood pressure pulse waves. PAF and the compound of Production Example 2 were respectively dissolved in physiological saline and administered via a cannula into the left femoral vein. After 1.0 μg/kg of PAF was intravenously administered and the respective parameters recovered to normal, the compound of Production Example 2 (10 mg/kg) was intravenously administered. […]

For CCCCCCCCCCCCCCCCCCNC(=O)OCC(COP(=O)([O-])OCC[n+]1ccsc1)OC (stereo not shown) [Production Example 2, 3-(N-Octadecylcarbamoyloxy)-2-methoxypropyl 2-thiazolioethyl phosphate], the “inhibition of PAF-induced changes of parameters, in words” value was “almost completely inhibited”.
